In US20100063155A1, “N-(3-PHENYLPROPYL)BENZAMIDE DERIVATIVES” (priority 2007, published 2010):
Some results were stated once for a whole list of compounds, not compound by compound.

Test system: Mycosphaerella graminicola
Test: In vivo test on Mycosphaerella graminicola (wheat leaf spot)
Settings: 500 ppm, preventive spray on wheat plants (Scipion variety), contaminated after 24 hours, grading 21 to 28 days after contamination vs control plants

SMILES	protection (% of efficacy)
O=C(NCCCc1ccc(Cl)cc1Cl)c1ccccc1C(F)(F)F [Compound 1, N-[3-(2,4-dichlorophenyl)propyl]-2-(trifluoromethyl)benzamide]	at least 70%
O=C(NCCCc1ccc(Cl)cc1Cl)c1ccccc1Cl [Compound 2]	at least 70%
